# The other results are listed elsewhere or left out. Further columns of the screen follow, without active or inactive calls. The list favours compounds with an active or inconclusive main result. Words in brackets tell the shape of the fitted curve; partial curves, single points and poor fits give uncertain potencies.
# Experiment: qHTS Assay to Find Inhibitors of Chronic Active B-Cell Receptor Signaling
# Conditions: ABC-DLBCL IkBa-CBG/CBR reporter, luminescence ratio (green luciferase fused to IkBa over red control in TMD8 lymphoma cells), 4 h
# Outline: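 Doxycycline induced both beetle luciferases in TMD8 lymphoma cells; IKK-driven degradation limits the IkappaBalpha-fused green signal, while red luminescence normalises for cell number and nonspecific effects. Compounds tested up to 46 uM, 4 hrs.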
# [1] = measured here: CBR red luminescence, cell number
SMILES,AC50 [1],AC50 (measured here: IkBa-CBG green luminescence)
CCCC(=O)Nc1cc(-c2nc3ncccc3o2)ccc1C,"10.3 µM [rising, partial curve]",–
CCOC(=O)N1CCN(c2c(NCCN3CCN(Cc4ccccc4)CC3)c(=O)c2=O)CC1,"6.51 µM [rising, single point]",–
COc1ccc(Cl)cc1/C=C/c1ccc2cccc(O)c2n1,"6.31 µM [rising, partial curve, poor fit]","11.2 µM [falling, partial curve, poor fit]"
c1ccc(-c2nc(-c3ccc(-c4ccon4)s3)no2)cc1,"6.31 µM [falling, full curve, poor fit]",–
COC(=O)c1ccc(CSc2ccccc2C)o1,"17.8 µM [falling, partial curve, poor fit]",–
COc1nccc(-c2ccc(F)cc2)c1C#N,"1.41 µM [falling, partial curve, poor fit]",–
CCOc1nc(C)ccc1-c1noc(-c2cccnc2)n1,"3.16 µM [rising, partial curve, poor fit]",–
Cc1nc(NC(=O)/C=C/c2ccc(Cl)cc2Cl)sc1C(=O)N(C)C,"20.6 µM [falling, single point]",–
O=C(CSc1ncn[nH]1)N1N=C2/C(=C/c3ccco3)CCCC2C1c1ccco1 (centres undefined),"23.1 µM [falling, single point]",–
C=C(C)Cn1c(Sc2nc3ccccc3[nH]2)nc2c1c(=O)[nH]c(=O)n2C,"35.5 µM [falling, single point]",–
CC1Cc2cc(/C=C3/SC(=S)NC3=O)ccc2O1 (centres undefined),"25.1 µM [falling, single point]",–
COc1ccc(Cc2nc3ccc(S(N)(=O)=O)cc3[nH]2)cc1OC,"20.6 µM [rising, single point]",–
COCCCNC(=O)CNC(=S)N(Cc1cc(OC)c(OC)c(OC)c1)C1CCCC1,"18.4 µM [rising, partial curve, poor fit]",–
COc1cccc(C(=O)Nc2nnc(-c3ccc(Cl)cc3)o2)c1,"3.55 µM [falling, full curve]",–
Cc1ccc([N+](=O)[O-])cc1S(=O)(=O)N1CCn2cccc2C1c1ccccc1 (centres undefined),"15.8 µM [rising, partial curve, poor fit]",–
Cc1cccc(N(Cc2ccccc2)C(=O)CCl)c1,"1.12 µM [falling, partial curve, poor fit]",–
O=C(Cc1ccccc1)N1CCN(C(=O)c2ccco2)CC1,"29.1 µM [rising, single point]",–
CC(=O)c1ccc(NC(=O)CN2CCC(NC(=O)C3CCCCC3)CC2)cc1,"14.1 µM [rising, single point]",–

# Given with bars between the fields: part of the list above.
SMILES | AC50 [1] | AC50 (measured here: IkBa-CBG green luminescence)
c1ccc(-c2nc(-c3ccc(-c4ccon4)s3)no2)cc1 | 6.31 µM [falling, full curve, poor fit] | –
O=C(CSc1ncn[nH]1)N1N=C2/C(=C/c3ccco3)CCCC2C1c1ccco1 (centres undefined) | 23.1 µM [falling, single point] | –
Cc1cccc(N(Cc2ccccc2)C(=O)CCl)c1 | 1.12 µM [falling, partial curve, poor fit] | –
